{"source": "paper PMC10139132", "about": "“Immobilization of M3 Muscarinic Receptor to Rapidly Analyze Drug—Protein Interactions and Bioactive Components in a Natural Plant” (International Journal of Molecular Sciences, 2023)", "system": "immobilized M3R", "assay": "Specificity of the M3R-immobilized column (retention times of ligands)", "format": "binding", "settings": "pH 7.4", "data": [{"smiles": "CN1[C@@H]2CC(OC(=O)[C@H](CO)c3ccccc3)C[C@H]1[C@@H]1O[C@@H]12.Cl", "note": "(single isomer, unassigned; (-)) [(−)-Scopolamine hydrochloride]", "values": [{"measurement": "retention time on the M3R-immobilized column", "value": 4.7, "unit": "min"}]}]}
